Measurements reported in PubChem BioAssay AID1259308 (NCATS, 2017)
The deposit covers about 59,000 reagents; shown is an unselected part. In the full data, about 1,510 (2.6%) are marked active. 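Calls use total luciferase alone and ignore viability, so some active siRNAs may act by altering cell number.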 Unmarked entries are inactive. Reagents against one gene are numbered here.

Aim: 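Knock-downs that increase output of a recombinant reporter protein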 (primary screen)
Cell system: human HEK293 embryonic kidney cells stably expressing firefly luciferase (HEK-CMV-Luc2-Hygro)
Knock-down reagent: single siRNA against human genes, 0.8 pmol siRNA per well
Time to read-out: 72 h
Measurement: 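Reporter luminescence and viable-cell signal on separate replicate plates, given as percent of non-targeting control and median/MAD z-scores, plus per-cell luciferase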
Scale: total luciferase, z-score and total luciferase, % of control: higher = more reporter protein produced; luciferase per cell, z-score: higher = more reporter output per viable cell; viable cells, % of control: higher = more viable cells
Hit rule: 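Active when the median/MAD z-score for overall luciferase is greater than 3; a gene was taken forward for validation with new siRNAs if at least two of its three siRNAs passed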
Meaning of the calls: active = raised luciferase; inactive = no rise

| gene | siRNA no. | total luciferase, z-score | total luciferase, % of control | luciferase per cell, z-score | viable cells, % of control |
| --- | --- | --- | --- | --- | --- |
| RPL23AP74 (GeneID 729617) | 1 | -0.787 | 66.2 | -0.442 | 83.2 |
| RPL23AP74 (GeneID 729617) | 2 | -0.169 | 78.5 | -0.359 | 96.5 |
| RPL23AP74 (GeneID 729617) | 3 | -0.399 | 74 | -0.0771 | 84.3 |
| CEP70 (GeneID 80321) | 1 | 2.13 | 124 | 1.47 | 94.4 |
| CEP70 (GeneID 80321) | 2 | -0.191 | 78.1 | -0.839 | 109 |
| CEP70 (GeneID 80321) | 3 | 0.737 | 96.6 | -0.203 | 114 |
| MTDH (GeneID 92140) | 1 | -0.374 | 74.4 | -0.467 | 94.1 |
| MTDH (GeneID 92140) | 2 | 0.848 | 98.7 | 0.729 | 91.1 |
| MTDH (GeneID 92140) | 3 | -0.84 | 65.2 | -0.286 | 78.5 |
| ZNF160 (GeneID 90338) | 1 | 0.803 | 97.9 | 1.72 | 69.5 |
| ZNF160 (GeneID 90338) | 2 | -2.01 | 41.9 | -2.16 | 82.6 |
| ZNF160 (GeneID 90338) | 3 | -0.847 | 65 | -1.13 | 97.7 |
| ADAM12 (GeneID 8038) | 1 | 5.1 (active) | 183 | 2.51 | 106 |
| ADAM12 (GeneID 8038) | 2 | -1.23 | 57.4 | -1.31 | 90.5 |
| ADAM12 (GeneID 8038) | 3 | 0.647 | 94.8 | 0.272 | 98.6 |
| PHAX (GeneID 51808) | 1 | -0.436 | 73.2 | -0.349 | 89.7 |
| PHAX (GeneID 51808) | 2 | -0.921 | 63.6 | -0.819 | 88.1 |
| PHAX (GeneID 51808) | 3 | -0.537 | 71.2 | -0.776 | 97.6 |
| TMEM248 (GeneID 55069) | 1 | -1.07 | 60.6 | -1.27 | 94.7 |
| TMEM248 (GeneID 55069) | 2 | 0.0455 | 82.8 | 0.637 | 78.2 |
| TMEM248 (GeneID 55069) | 3 | 0.182 | 85.5 | -0.152 | 99.5 |
| GSN (GeneID 2934) | 1 | -1.1 | 60 | -1.21 | 92.2 |
| GSN (GeneID 2934) | 2 | 0.149 | 84.9 | -0.436 | 106 |
| GSN (GeneID 2934) | 3 | 0.93 | 100 | 0.909 | 88.3 |
| DEFB109B (GeneID 641517) | 1 | 0.0307 | 82.5 | -0.205 | 97.3 |
| DEFB109B (GeneID 641517) | 2 | -1.51 | 51.9 | -1.91 | 95.8 |
| DEFB109B (GeneID 641517) | 3 | -0.797 | 66 | -0.47 | 83.5 |
| H3C4 (GeneID 8351) | 1 | 2.01 | 122 | 1.72 | 86.7 |
| H3C4 (GeneID 8351) | 2 | 0.971 | 101 | 1.34 | 79.5 |
| H3C4 (GeneID 8351) | 3 | 0.303 | 87.9 | -0.266 | 105 |
| TTC6 (GeneID 319089) | 1 | 0.566 | 93.1 | 0.327 | 95.5 |
| TTC6 (GeneID 319089) | 2 | 0.55 | 92.8 | 1.47 | 70.5 |
| TTC6 (GeneID 319089) | 3 | -0.766 | 66.7 | -0.839 | 92.9 |
| TTC6 (GeneID 319089) | 4 | 0.774 | 97.3 | 0.577 | 93.4 |
| TTC6 (GeneID 319089) | 5 | 0.0532 | 82.9 | -0.193 | 97.5 |
| TTC6 (GeneID 319089) | 6 | -0.484 | 72.3 | -0.285 | 87 |
| CENPC (GeneID 1060) | 1 | -0.907 | 63.8 | -1.34 | 102 |
| CENPC (GeneID 1060) | 2 | -0.789 | 66.2 | -0.589 | 86.4 |
| CENPC (GeneID 1060) | 3 | 0.378 | 89.4 | 0.0401 | 98.9 |
| PEX5 (GeneID 5830) | 1 | 0.216 | 86.2 | 0.259 | 90 |
| PEX5 (GeneID 5830) | 2 | 1.65 | 115 | 2.18 | 72.1 |
| PEX5 (GeneID 5830) | 3 | 0.654 | 94.9 | 0.114 | 103 |
| MED28 (GeneID 80306) | 1 | -2.03 | 41.5 | -1.77 | 73.9 |
| MED28 (GeneID 80306) | 2 | -2.73 | 27.5 | -2.82 | 64.6 |
| MED28 (GeneID 80306) | 3 | -1.88 | 44.5 | -0.936 | 63.6 |
| LRRC40 (GeneID 55631) | 1 | 1.2 | 106 | 0.853 | 94.5 |
| LRRC40 (GeneID 55631) | 2 | -0.196 | 78 | -0.478 | 98.8 |
| LRRC40 (GeneID 55631) | 3 | 2.34 | 128 | 1.37 | 100 |
| CA5B (GeneID 11238) | 1 | -1.24 | 57.2 | -1.72 | 101 |
| CA5B (GeneID 11238) | 2 | -1.58 | 50.5 | -1.8 | 90.7 |
| CA5B (GeneID 11238) | 3 | -0.278 | 76.4 | 0.518 | 74.5 |
| PRPF40A (GeneID 55660) | 1 | -0.948 | 63 | 0.358 | 64.1 |
| PRPF40A (GeneID 55660) | 2 | -0.291 | 76.1 | 0.516 | 74.2 |
| PRPF40A (GeneID 55660) | 3 | 0.0582 | 83 | 0.803 | 75.1 |
| GOLM2 (GeneID 113201) | 1 | 1.63 | 114 | 1 | 98 |
| GOLM2 (GeneID 113201) | 2 | 0.794 | 97.7 | 0.675 | 91.4 |
| GOLM2 (GeneID 113201) | 3 | -0.0827 | 80.2 | -0.323 | 97.6 |

7 entries from above, set out differently.
gene | siRNA no. | total luciferase, z-score | total luciferase, % of control | luciferase per cell, z-score | viable cells, % of control
PHAX (GeneID 51808) | 2 | -0.921 | 63.6 | -0.819 | 88.1
PHAX (GeneID 51808) | 3 | -0.537 | 71.2 | -0.776 | 97.6
TMEM248 (GeneID 55069) | 1 | -1.07 | 60.6 | -1.27 | 94.7
TMEM248 (GeneID 55069) | 2 | 0.0455 | 82.8 | 0.637 | 78.2
TMEM248 (GeneID 55069) | 3 | 0.182 | 85.5 | -0.152 | 99.5
GSN (GeneID 2934) | 1 | -1.1 | 60 | -1.21 | 92.2
GSN (GeneID 2934) | 2 | 0.149 | 84.9 | -0.436 | 106
